Binding data for one substance are collected here from paper PMC9646764.

This assay addresses T1, TFPI2-Fc (Fc-tagged TFPI2) (UniProt P48307).
T1 sequence: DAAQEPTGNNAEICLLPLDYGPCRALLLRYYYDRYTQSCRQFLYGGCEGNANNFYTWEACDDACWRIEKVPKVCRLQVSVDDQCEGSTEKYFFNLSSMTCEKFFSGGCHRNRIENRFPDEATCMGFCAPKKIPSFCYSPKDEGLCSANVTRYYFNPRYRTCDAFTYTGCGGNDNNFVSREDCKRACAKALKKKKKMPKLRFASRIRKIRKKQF
As to the kind of experiment: BLI; […] (10 ug/mL) […] (BLItz, ForteBio), […] (0.5% BSA); […]; dissociation in DPBS (0.5% BSA); both purified.

Results are given in words; binding and its absence hold for the method and conditions named. Where a sequence is shown, tags or fusion partners need not be part of it.

Take “TcdB4.2 (full-length recombinant toxin B variant 4.2) (Clostridioides difficile)”: the binding result is given as “no binding (tested: 500 nM)”.
